{
  "source": "patent US10878939B2",
  "about": "“Methods and compositions for personalized pain management” (Children's Hospital Medical Center, priority 2014, dated 2020)",
  "origin": "cited, not measured here",
  "system": "OCT1",
  "conditions": "cited from earlier work",
  "data": [
    {"smiles": "CN1CC[C@]23c4c5ccc(O)c4O[C@H]2[C@@H](O)C=C[C@H]3[C@H]1C5", "note": "[morphine]", "values": [
      {"measurement": "reduction of uptake rate when loss-of-function OCT1 polymorphisms were present", "setting": "hepatocytes over-expressing OCT1", "result": "75-100%"},
      {"measurement": "transporter-dependent uptake into hepatocytes, share of the total uptake", "setting": "in vitro studies", "result": "about 60%"}
    ]}
  ]
}
